Experimental data: PubChem BioAssay AID1259327 (Drosophila RNAi Screening Center, 2017)
Here is an unselected part of about 3,100 deposited reagents. In the full data, 378 (12%) were called active. 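Hits include both directions; z-score sign shows ATP rise or fall; raw luminescence values are not plate-normalised.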 A number with no mark means an inactive call. Reagent sequences are not shown. Not given: the amount of reagent.

Purpose: 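Baseline ATP after transmembrane-protein gene knock-down with water vehicle only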
Cells: Drosophila S2R+ cells
Reagents: long dsRNA against Drosophila genes
Duration: 5 days (water added on day 4, read one day later)
Challenge: water added as vehicle, no metal, one day before read-out
Read-out: 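Luciferase ATP signal per well, normalised to plate mean, duplicate average converted to z-score across plates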
Scale: ATP z-score: higher = more total ATP than typical wells; ATP luminescence: higher = more total ATP
Hit rule: 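Called active when the ATP z-score exceeds 1.5 or falls below -1.5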
Calls: active = hit: ATP up or down; inactive = no clear ATP change

predicted target,amplicon,"ATP z-score, duplicate mean","ATP luminescence, replicate 1 (RLU)","ATP luminescence, replicate 2 (RLU)"
Or22a,DRSC26009,-0.324,8.69e5,7.50e5
Snmp1,DRSC16168,0.238,2.93e5,8.29e5
tkv,DRSC03623,-1.28,4.07e5,3.70e5
tkv,DRSC22606,0.221,6.19e5,5.78e5
tkv,DRSC25957,-0.873,6.76e5,8.08e5
CG12531,DRSC19466,0.769,7.95e5,8.59e5
CG12531,DRSC27679,-1.29,8.91e5,1.03e6
Syx17,DRSC08591,0.71,7.92e5,8.22e5
Eaat2,DRSC00032,-0.689,6.14e5,7.25e5
Eaat2,DRSC00749,-0.384,4.18e5,4.89e5
Eaat2,DRSC26070,0.118,8.52e5,8.77e5
colt,DRSC00808,-0.66,4.53e5,4.11e5
colt,DRSC29025,0.329,8.87e5,8.40e5
Ir60a,DRSC04212,0.485,7.88e5,7.67e5
Ir60a,DRSC39476,-1.43,3.73e5,3.45e5

Reprinted from above (4 entries):
predicted target,amplicon,"ATP z-score, duplicate mean","ATP luminescence, replicate 1 (RLU)","ATP luminescence, replicate 2 (RLU)"
Snmp1,DRSC16168,0.238,2.93e5,8.29e5
tkv,DRSC03623,-1.28,4.07e5,3.70e5
tkv,DRSC22606,0.221,6.19e5,5.78e5
tkv,DRSC25957,-0.873,6.76e5,8.08e5

Next reagents follow.
predicted target,amplicon,"ATP z-score, duplicate mean","ATP luminescence, replicate 1 (RLU)","ATP luminescence, replicate 2 (RLU)"
CG3690,DRSC18170,-1.24,5.81e5,6.36e5
CG3690,DRSC18641,2.51 (active),7.98e5,7.50e5
sip3,DRSC29484,0.327,7.79e5,9.37e5
sip3,DRSC39765,-1.47,3.93e5,3.58e5
Ir56d,DRSC06590,-0.202,5.96e5,6.06e5
Ir56d,DRSC28383,0.639,9.65e5,8.40e5
egh,DRSC18771,-1.91 (active),6.93e5,6.93e5
egh,DRSC29898,-1.49,4.63e5,4.44e5
Tsp68C,DRSC09295,-0.135,6.06e5,7.65e5
Tsp68C,DRSC28942,0.353,9.65e5,7.75e5
rst,DRSC17243,-0.348,8.81e5,8.21e5
rst,DRSC18828,-0.991,5.57e5,7.41e5
rst,DRSC39453,1.22,5.13e5,5.53e5
CG12194,DRSC00345,-0.275,6.93e5,7.01e5
CG12194,DRSC24918,-0.26,9.78e5,1.05e6
CG10183,DRSC14203,0.772,3.25e5,8.68e5
CG10183,DRSC25343,-0.0573,8.33e5,8.54e5
CG8112,DRSC16377,0.128,2.98e5,7.93e5
CG8112,DRSC39422,-0.055,4.45e5,4.53e5
Gr36c,DRSC02437,-0.0256,7.63e5,6.85e5
Gr36c,DRSC26305,0.692,8.91e5,9.82e5
CG42514,DRSC10428,0.232,7.41e5,7.71e5
CG2121,DRSC06819,0.426,7.51e5,8.03e5
CG2121,DRSC06820,-1.19,4.93e5,5.30e5
CG6927,DRSC18407,0.557,7.75e5,7.52e5
CG6927,DRSC39725,0.253,5.05e5,4.59e5
Polr3I,DRSC19922,,7.31e5,7.08e5
CG14857,DRSC14981,0.382,3.26e5,7.78e5
CG14857,DRSC39636,-1.28,3.84e5,3.72e5
Or85a,DRSC16764,0.383,3.22e5,7.90e5
CG13654,DRSC14654,-0.202,3.02e5,7.09e5
CG13654,DRSC39888,-0.109,5.80e5,5.69e5
